Experimental data reported in patent US5854388A, “Angiotensin IV peptides and receptor” (Washington State University Research Foundation, priority 1994, dated 1998).

Sequences of proteins named here, by UniProt entry; tags and fusion partners are left off. Residues count along the entry.
UniProt F1N1Q8, 1-1022: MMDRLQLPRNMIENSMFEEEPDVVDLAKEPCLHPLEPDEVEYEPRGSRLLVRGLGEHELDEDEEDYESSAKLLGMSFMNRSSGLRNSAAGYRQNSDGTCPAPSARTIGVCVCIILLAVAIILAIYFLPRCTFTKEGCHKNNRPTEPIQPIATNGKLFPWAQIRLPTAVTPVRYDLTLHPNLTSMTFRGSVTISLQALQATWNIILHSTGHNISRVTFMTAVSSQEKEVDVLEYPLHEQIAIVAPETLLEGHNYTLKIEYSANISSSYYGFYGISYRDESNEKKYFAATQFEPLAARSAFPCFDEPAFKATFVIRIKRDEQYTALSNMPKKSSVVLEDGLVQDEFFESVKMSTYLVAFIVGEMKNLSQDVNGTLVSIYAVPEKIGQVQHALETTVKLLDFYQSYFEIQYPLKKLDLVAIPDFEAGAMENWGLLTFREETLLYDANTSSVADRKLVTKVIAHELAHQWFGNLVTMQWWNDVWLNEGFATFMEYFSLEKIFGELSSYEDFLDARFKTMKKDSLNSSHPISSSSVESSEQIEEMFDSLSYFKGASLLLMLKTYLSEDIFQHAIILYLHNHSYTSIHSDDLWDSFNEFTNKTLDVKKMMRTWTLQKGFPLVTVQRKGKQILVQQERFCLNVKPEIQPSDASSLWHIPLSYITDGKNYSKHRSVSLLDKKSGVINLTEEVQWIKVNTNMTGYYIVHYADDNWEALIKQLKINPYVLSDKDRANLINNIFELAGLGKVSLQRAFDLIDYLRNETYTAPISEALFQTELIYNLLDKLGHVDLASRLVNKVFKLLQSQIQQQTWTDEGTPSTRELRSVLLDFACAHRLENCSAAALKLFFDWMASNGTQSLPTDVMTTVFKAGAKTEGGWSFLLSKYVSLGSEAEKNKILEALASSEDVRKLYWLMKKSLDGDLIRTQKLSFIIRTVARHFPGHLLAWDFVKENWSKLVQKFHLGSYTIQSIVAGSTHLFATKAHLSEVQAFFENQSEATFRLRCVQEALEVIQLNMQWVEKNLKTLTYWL

Biological target: AT4 receptor (Bos taurus, UniProt F1N1Q8)
Test: 125I-AIV binding and competition, coronary venular endothelial cell (CVEC) membranes
Set-up: species or system bovine

Q: How did the “increase in Ki (decrease in affinity) compared with AIV” value turn out when `CC[C@H](C)[C@H](NC(=O)[C@H](Cc1ccc(O)cc1)NC(=O)[C@@H](NC(=O)[C@H](CCCNC(=N)N)NC(=O)[C@@H](N)CC(=O)O)C(C)C)C(=O)N[C@@H](Cc1cnc[nH]1)C(=O)N1CCC[C@H]1C(=O)N[C@@H](Cc1ccccc1)C(=O)O` was run?
A: 200 fold and 20 fold

A number of entries come with more than one value. Only these are listed. An entry can have further records. The records of an entry differ, and nothing given here explains why; dose, time, organism, isomer or construct need not be as stated for each record.
